For the assay, the target named is T1, Myc-MINDY1 full length (UniProt Q8N5J2).
T1 sequence: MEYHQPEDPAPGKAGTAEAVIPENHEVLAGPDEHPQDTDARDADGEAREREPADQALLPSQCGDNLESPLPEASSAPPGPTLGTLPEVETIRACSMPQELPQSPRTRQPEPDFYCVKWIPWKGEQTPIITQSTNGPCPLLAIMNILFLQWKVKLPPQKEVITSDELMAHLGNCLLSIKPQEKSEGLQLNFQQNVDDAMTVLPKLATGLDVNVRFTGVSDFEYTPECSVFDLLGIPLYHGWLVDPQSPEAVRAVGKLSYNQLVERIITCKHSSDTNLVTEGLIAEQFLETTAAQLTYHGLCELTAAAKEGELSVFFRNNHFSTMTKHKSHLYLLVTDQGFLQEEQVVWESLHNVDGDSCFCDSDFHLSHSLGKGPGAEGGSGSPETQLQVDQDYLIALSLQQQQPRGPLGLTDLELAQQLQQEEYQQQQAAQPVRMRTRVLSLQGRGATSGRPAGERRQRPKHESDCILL
Put plainly: co-IP; HEK293 cells transfected with 2 µg Myc-MINDY1 together with HA-ERα full length or mutants; 24 h; NP-40 lysis buffer; IP with Myc antibody, detection with HA antibody.

No constants are given. Whether binding was seen depends on the method and setting. In cells and extracts the contact can be indirect. Binding can be weak; no strength is given. Sequences can lack the tags named with a protein.

For the substance “N-terminal of ERα which includes AF1 domain (HA-tagged deletion mutant) (domain or fragment)”, the binding result is listed as “binds”.

(Values after article PMC8514509.)
